Experimental data: PubChem BioAssay AID720710 (VTT Finland, 2013)
The whole screen tested about 1,380 reagents; below is a part drawn at random. 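One array per condition without replicates; hydroxyurea arrays received 2 mM for 16 h plus 3 h recovery.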 The numbers tell different reagents against one gene apart. Reagent sequences are not shown.

- Test: 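siRNAs sensitising CCNE1-overexpressing U-2 OS cells to replication stress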 (primary screen)
- Cells: human U-2 OS bone cancer cells, parental and a cyclin E (CCNE1) overexpressing line
- Reagent: single siRNA against human genes, 1 µM siRNA in the printed spot mix
- Duration: 67 h
- Treatment: half the arrays: hydroxyurea 2 mM for 16 h, then 3 h recovery; other arrays untreated
- Detection: 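EdU click signal imaged per DAPI-stained nucleus at 67 h; each spot divided by its subgrid median, then z-scored relative to non-targeting control spots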
- Reading the numbers: EdU z-score, cyclin E line, hydroxyurea and EdU z-score, parental, hydroxyurea and EdU z-score, cyclin E line, untreated and EdU z-score, parental, untreated: higher = more DNA synthesis than non-targeting controls

| Gene | reagent no. | EdU z-score, cyclin E line, hydroxyurea | EdU z-score, parental, hydroxyurea | EdU z-score, cyclin E line, untreated | EdU z-score, parental, untreated |
| --- | --- | --- | --- | --- | --- |
| H4C11 | 1 | 0.262 | 0.0657 | -1.05 | -0.986 |
| H4C11 | 2 | 0.956 | 3.04 | 0.769 | 0.966 |
| KIN | 1 | -0.869 | 0.198 | -0.955 | 0.411 |
| KIN | 2 | 0.877 | 1.44 | -0.00781 | 0.907 |
| SP8 | 1 | 0.975 | -2.9 | -0.194 | 0.643 |
| SP8 | 2 | 1.53 | 2.76 | 0.666 | 0.887 |
| TFAP2B | 1 | 1.06 | -0.863 | -0.781 | -0.742 |
| TFAP2B | 2 | 1.79 | 3.34 | -0.139 | 0.324 |
| TRIM28 | 1 | -1.67 | -5.07 | -0.937 | 0.593 |
| TRIM28 | 2 | -0.213 | -1.04 | 0.502 | 1.71 |
| ARID1A | 1 | -0.64 | 2.18 | 0.0499 | -1.77 |
| ARID1A | 2 | -0.55 | 2.29 | 0.205 | -1.01 |
| H2BC15 | 1 | 0.103 | -1.27 | -0.984 | 0.402 |
| H2BC15 | 2 | 1.16 | 0.645 | -0.12 | 0.479 |
| CBX6 | 1 | 0.178 | -1.5 | -1.68 | -0.588 |
| CBX6 | 2 | 0.246 | 2.64 | 0.529 | -0.0906 |
| PML | 1 | -0.963 | 0.2 | -0.794 | -0.711 |
| PML | 2 | 0.0565 | 4.28 | 0.261 | 1.38 |
| GLI1 | 1 | -0.728 | -0.316 | -2.03 | -1.95 |
| GLI1 | 2 | 1.1 | 1.58 | 0.533 | 1.15 |
| EXD2 | 1 | 0.41 | -4.47 | -0.515 | -0.497 |
| EXD2 | 2 | 0.941 | -1.15 | -0.223 | -0.438 |
| ERCC3 | 1 | -2.81 | 0.431 | -1.03 | 0.026 |
| ERCC3 | 2 | 1.08 | 1.61 | 0.198 | 0.306 |
| RNGTT | 1 | 0.165 | -2.82 | -3.98 | -0.736 |
| RNGTT | 2 | 0.797 | 3.43 | 0.763 | -0.124 |
| MDC1 | 1 | -0.906 | -0.28 | -1.58 | -0.103 |
| MDC1 | 2 | 3.11 | 1.7 | -0.674 | 0.872 |
| KMT5B | 1 | -0.597 | -1.16 | -1.96 | -4.04 |
| KMT5B | 2 | -0.0202 | 0.0914 | -1.43 | -0.0813 |
| CCDC178 | 1 | -0.354 | -2.79 | -1.06 | -0.641 |
| CCDC178 | 2 | 1.34 | 2.58 | -0.202 | -0.625 |
| WRN | 1 | 0.475 | -0.898 | -0.799 | 0.938 |
| WRN | 2 | 1.48 | 2.16 | -0.145 | 2.46 |
| POLD2 | 1 | -0.428 | -3.39 | -0.898 | -1.1 |
| POLD2 | 2 | 0.179 | -0.155 | 0.0312 | -0.51 |
| N4BP2L1 | 1 | -0.274 | -1.2 | -4.89 | -0.707 |
| N4BP2L1 | 2 | 1.23 | -0.614 | -0.335 | 0.378 |
| ZFAT | 1 | -0.0513 | -1.97 | -3.97 | -1.34 |
| ZFAT | 2 | 0.139 | -0.269 | -2.27 | 0.05 |

7 successive entries from above:
| Gene | reagent no. | EdU z-score, cyclin E line, hydroxyurea | EdU z-score, parental, hydroxyurea | EdU z-score, cyclin E line, untreated | EdU z-score, parental, untreated |
| --- | --- | --- | --- | --- | --- |
| CCDC178 | 1 | -0.354 | -2.79 | -1.06 | -0.641 |
| CCDC178 | 2 | 1.34 | 2.58 | -0.202 | -0.625 |
| WRN | 1 | 0.475 | -0.898 | -0.799 | 0.938 |
| WRN | 2 | 1.48 | 2.16 | -0.145 | 2.46 |
| POLD2 | 1 | -0.428 | -3.39 | -0.898 | -1.1 |
| POLD2 | 2 | 0.179 | -0.155 | 0.0312 | -0.51 |
| N4BP2L1 | 1 | -0.274 | -1.2 | -4.89 | -0.707 |
